Experimental data from article PMC3459938.
Construct, isoform or probe ends are uncertain for at least one entry.

Biological target: WW2-3-4-p53wt (Nedd4 WW2-3-4 fused to human p53) (Homo sapiens) (UniProt P04637)
Assay: EMSA
Details: recombinant protein, protein details: His tag, Nedd4 WW2-3-4 fusion, label: biotin (biotin-dUTP labelling of annealed probe)

Sequence: AATGTCCGGGCATGTCCGGGCATGTCCGGGCATGT / AATCATGCCCGGACATGCCCGGACATGCCCGGACA [p53 sequence-specific DNA probe]
- binding result (NVoy added, binding greatly improved): binds
- binding result (with Pt-Dd): binds
